Measurements reported in PubChem BioAssay AID1259314 (Drosophila RNAi Screening Center, 2017)
This is an unselected part of about 3,100 reagents. 289 of them (9.3%) were called active. 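Active includes both higher and lower ATP than plate average; check the z-score sign for direction.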 A number with no mark means an inactive call. Reagents against one gene are numbered here. A plus sign joins genes that one reagent is predicted to hit. No sequences are given here. Not stated in the record: the amount of reagent.

Aim: 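Modifiers of manganese chloride toxicity in fly cells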 (primary screen)
System: Drosophila S2R+ cells
Reagents: long dsRNA against Drosophila genes
Time to read-out: 5 days (4 days knock-down, then 1 day metal exposure)
Challenge: manganese chloride added to 15 mM for 24 hours
Detection: 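Cellular ATP measured by luciferase light, scaled to the plate mean, averaged across replicates and z-scored over plates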
Scale: mean ATP z-score: higher = more ATP than the plate average, more viable cells under manganese
Rule for the call: 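a mean ATP z-score past 1.5 in either direction is called active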
Meaning of the calls: active = strong ATP change, up or down; inactive = no strong ATP change

target gene	reagent no.	mean ATP z-score
CG14440	1	0.0422
CG14440	2	1.13
eca	1	1.39
Sply	1	-2.4 (active)
Sply	2	-0.01
Grl43a	1	0.69
CG33303	1	-0.138
CG33303	2	0.384
CG10226	1	-0.0651
Ntl	1	0.334
Ntl	2	1.3
CG14606	1	0.318
ppk14	1	1.31
ppk14	2	0.609
Tsp39D	1	0.248
Tsp42Eo	1	1.83 (active)
VAChT + ChAT	1	0.287
CG34435	1	0.0941
CG34435	2	0.161
Or49b	1	-0.57
Gr28a	1	-0.0937
nAChRalpha4	1	0.381
nAChRalpha4	2	0.205
CG13920	1	0.335
CG13920	2	0.64
CG13887	1	-0.205
CG17321	1	-0.19
CG17321	2	-0.91
CG15706	1	0.00517
CG15706	2	0.833
beta4GalT7	1	0.534
CG4476	1	-1.29
CG4476	2	-0.0657
CG11426	1	-0.457
CG11426	2	-0.843
CG11426	3	0.153
TM4SF	1	1.17
TM4SF	2	-0.31
Nhe3	1	-0.464
Nhe3	2	-0.782
bib + lncRNA:CR13130	1	-0.625
CG6763	1	-1.04
CG6763	2	0.167
Or30a	1	3.08 (active)
Or30a	2	0.467
Cds + Setx	1	-0.671
CG7882	1	-0.125
NKCC	1	1.94 (active)
NKCC	2	-1.2

Laid out differently: 6 of the entries above
{"target gene": "eca", "reagent no.": 1, "mean ATP z-score": 1.39}
{"target gene": "Sply", "reagent no.": 1, "mean ATP z-score": "-2.4 (active)"}
{"target gene": "Sply", "reagent no.": 2, "mean ATP z-score": -0.01}
{"target gene": "Grl43a", "reagent no.": 1, "mean ATP z-score": 0.69}
{"target gene": "CG33303", "reagent no.": 1, "mean ATP z-score": -0.138}
{"target gene": "CG33303", "reagent no.": 2, "mean ATP z-score": 0.384}

Next results:
target gene	reagent no.	mean ATP z-score
Tsp42Eh	1	0.576
Tsp42Eh	2	0.125
para	1	2.91 (active)
para	2	-0.235
twz	1	0.507
twz	2	0.773
ldd	1	-0.0365
ldd	2	1.81 (active)
trp	1	-0.0663
trp	2	-0.292
CG7333	1	1.61 (active)
CG13795	1	4.5 (active)
CG13795	2	2.14 (active)
ppk30	1	0.101
ppk30	2	-0.0726
NAAT1	1	-0.452
NAAT1	2	1.17
CG31213	1	0.238
CG31213	2	0.842
Grl36a	1	0.458
GluClalpha	1	0.147
Abca3	1	-0.169
kirre	1	-0.00282
kirre	2	0.677
CG7582	1	0.19
CG7582	2	-1.25
